This note sets out measurements from PMC7816512.

No constants are given. Whether binding was seen depends on the method and setting. Binding seen in cells or lysates may run through a third protein. Here binding means that the protein was enriched with, or labelled near, the bait; the list need not be complete. Where a sequence is shown, tags or fusion partners need not be part of it.

The test addresses T1, FLAG-HA-Rbm10 (S. pombe) (UniProt P87143).
T1 sequence: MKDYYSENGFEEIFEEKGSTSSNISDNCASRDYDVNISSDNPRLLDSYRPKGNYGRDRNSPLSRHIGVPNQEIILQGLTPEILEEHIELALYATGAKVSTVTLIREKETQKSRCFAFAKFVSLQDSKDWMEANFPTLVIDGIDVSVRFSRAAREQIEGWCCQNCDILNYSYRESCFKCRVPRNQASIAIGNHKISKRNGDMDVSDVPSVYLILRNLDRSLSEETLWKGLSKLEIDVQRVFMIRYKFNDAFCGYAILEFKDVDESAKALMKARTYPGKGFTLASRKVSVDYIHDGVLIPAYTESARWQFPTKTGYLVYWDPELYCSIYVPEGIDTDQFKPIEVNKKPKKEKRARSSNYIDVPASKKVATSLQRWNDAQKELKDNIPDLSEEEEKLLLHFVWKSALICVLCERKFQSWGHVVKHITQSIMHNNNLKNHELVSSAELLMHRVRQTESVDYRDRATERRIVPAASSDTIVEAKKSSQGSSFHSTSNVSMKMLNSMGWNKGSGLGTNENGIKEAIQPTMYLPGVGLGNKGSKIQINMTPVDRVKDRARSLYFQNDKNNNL
Put plainly: affinity purification with mass spectrometry; two-step purification (anti-FLAG beads, 3xFLAG peptide elution, then uMACS HA magnetic beads) of overexpressed FLAG-HA-Rbm10 from S. pombe lysate with Benzonase; three independent purifications; control purification from an untagged strain.

B1: Usp107 (protein, UniProt Q8WZK0 1-695)
chain: MQRQNTQAAGMPMMPQVPMVGNGVPYVVPIQPVFAPLPPDYRSLYKKLYGQGAFLVDNPVEASSPYDFSQPILKFGKLPIKQVLRDNESQQKDRKNLPRNQKSNEIQEKQTFQTPSSEKSTTERESRPFVPPNSQQMRRMLFIGNIPKELDDFWMDKILRLSGKLASWRRVADADNSMTSFGFAEFESNEQFSRALEALNDFVVPPLYEGGPSTRLSLITDVENEGLYREWQTSRYARNKQKEINILQQIRFNLERICQDIGNFDVRSRIERAARQAREKNEKLLQNVKTSEIPINAADLEGINPELLPVIEEEIRSFRDQSAMKKREKQRSKDEYASLYKEYTRKEQEKLRKQNDDLQNLLSKHRISRIPMSTVNAFLRAEDSIPESFSDEQAYYEEKRRKDQLEAEEYYARERRWMNREKARTAALEREAAREEEERVNNTSFGTYLSEKLASFDDDEEARVSRDEYFVDRAAWIRHRAVARAREEDADALDRKEEERELRTRGEGATVETENYVENGKLVTSEMPQHENGPFKIKIQTKKPAVPSERREFGLPERLLLEEEDEEPQGYSPNPQKPKPAMEENDAEKTKRLRSLIEKIPVEAESLWALPIDWSKVTEDLLKEEMQAFVTKKIIEYIGIQEDSLITFTIDHIRQHKGAEQLVSELDLALAEDAPEFVSKVYRYLHVLLILRSEA
On to B1, for which the binding result is listed as “binds”.

B2: Cwf10 (protein, UniProt O94316 1-984)
chain: MMEEDLYDEFGNYIGPENEEDEEELFPQAPSPTIAQVPSFEEVIPDEELEDVERAEEMALSHLEPQNAVVLHEDKQYYPSAEEVYGSNVDIMVQEQDTQPLSQPIIEPIRHKRIAIETTNVPDTVYKKEFLFGLLTGTDDVRSFIVAGHLHHGKSALLDLLVYYTHPDTKPPKRRSLRYTDTHYLERERVMSIKSTPLTLAVSDMKGKTFAFQCIDTPGHVDFVDEVAAPMAISDGVVLVVDVIEGVMINTTRIIKHAILHDMPIVLVLNKVDRLILELRLPPNDAYHKLRHVIDEVNDNICQISKDLKYRVSPELGNVCFASCDLGYCFTLSSFAKLYIDRHGGIDVDLFSKRLWGDIYFDSKTRKFAKQSLDGSGVRSFVHFILEPLYKLHTLTISDEAEKLKKHLSSFQIYLKPKDYLLDPKPLLQLICASFFGFPVGFVNAVTRHIPSPRENAARKASQSYIGPINSSIGKAILEMSREESAPLVMHVTKLYNTVDANNFYAFARVYSGQVKKGQKVKVLGENYSLEDEEDMVVAHIAEICVPCARYRLHVDGAVAGMLVLLGGVDNSISKTATIVSDNLKDDPYIFRPIAHMSESVFKVAVEPHNPSELPKLLDGLRKTNKSYPLSITKVEESGEHTIFGTGEMYMDCLLYDLRTLYSEIEIRVSDPVARFCETAVDTSSIKCFSDTPNKKNRITMVVEPLEKGISNDIENGKVNINWPQKRISEFFQKNYDWDLLASRSIWAFGPDDRGTNILRDDTLSTDVDKNVLNSVKEYIKQGFQWGTREGPLCDETIRNVNFRLMDVVLAPEQIYRGGGQIIPTARRVCYSSFLTASPRLMEPVYMVEVHAPADSLPIIYDLLTRRRGHVLQDIPRPGSPLYLVRALIPVIDSCGFETDLRVHTQGQAMCQMVFDHWQVVPGDPLDKSIKPKPLEPARGSDLARDFLIKTRRRKGLVEDVSTTRYFDQEMIDSLKEAGVVLSL
Regarding B2, the binding entry was “binds”.

B3: Cwf18 (protein, UniProt Q9UU80 1-142)
chain: MSSLDEVAESRKQRLAELRKIKQLENKTRDSQEVQKNVIEHRNYDPEVQAPKMGFVEPPNMIESVEALSKEIEEKTKRKIEEQSSVPVEELDLVTLRPKKPTWDLERDLKERMRSLETQNQNAIAFYIQQLISERAHSTEKA
For the molecule B3, the binding entry is given as “binds”.

B4: Cdc5 (protein, UniProt P39964 1-757)
chain: MVVLKGGAWKNTEDEILKAAVSKYGKNQWARISSLLVRKTPKQCKARWYEWIDPSIKKTEWSREEDEKLLHLAKLLPTQWRTIAPIVGRTATQCLERYQKLLDDLEAKENEQLGLISGEGAEAAAPVNDPNSRLRFGEAEPNLETLPALPDAIDMDEDEKEMLSEARARLANTQGKKAKRKDREKQLELTRRLSHLQKRRELKAAGINIKLFRRKKNEMDYNASIPFEKKPAIGFYDTSEEDRQNFREKREADQKIIENGIRNNEMESEGRKFGHFEKPKPIDRVKKPNKDAQEEKMRRLAEAEQMSKRRKLNLPSPTVSQDELDKVVKLGFAGDRARAMTDTTPDANYSTNLLGKYTQIERATPLRTPISGELEGREDSVTIEVRNQLMRNREQSSLLGQESIPLQPGGTGYTGVTPSHAANGSALAAPQATPFRTPRDTFSINAAAERAGRLASERENKIRLKALRELLAKLPKPKNDYELMEPRFADETDVEATVGVLEEDATDRERRIQERIAEKERLAKARRSQVIQRDLIRPSVTQPEKWKRSLENEDPTANVLLKEMIALISSDAINYPFGNSKVKGTANKVPDLSNEEIERCRLLLKKEIGQLESDDYIQFEKEFLETYSALHNTSSLLPGLVIYEEDDEDVEAAEKFYTNDIQRDLAKKALECNKLENRVYDLVRSSYEQRNFLIKKISHAWKALQTERKNLTCYEFLYNQERLALPNRLEAAEIELSKMQQIEAYAQQDYARVTGQN
In the case of B4, the binding result was “binds”.

B5: Lsd2 (protein, UniProt Q10135 1-1235)
chain: MNTSENDPDGHYDFPEMTEHHSDRASSYANANNVNSTQPQLVSSEQALLAILGGGLQSITPNSVNQNAYSRSTYRTDGGLNSQPVSSLNNQWGNYNPAFLPSRYDSSFHPYTISQAANQPFPQHLLGNSNAGVAQQSGMRTIGLPPTVGSSFPQQKSSTYENFFDANSPSSQQFPSTYPSRSQNPLSSSGDGSTAIHAGPIQHQNSNAFSNYPYPLDASHLSSQQLLSMYRDQVSHGVTPSTFRNHESFMPTQLVSATELSKSVDNAVLPIPPTTAPAVVSPPASSFPLMSSAATSGNISSPALFDSELGARPEGSVAIEPSRVLLQWSSQSSSHTIPSAGASIPTSSLKSFFEHAAEAARKCNLDPRALESFEQHMLSDRLHDPVVLFHYFQIRNSICWLWIKNPTHAISRVEAQGVCVDRCLFQLASLAYEFLVRYGYINYGCLSFDSSFTNETNTGTTSSSASKQKTIAVVGAGLTGLICARQLTGLFSQYSSSFLSKNELPPKVIILEAKERTGGRIYSRALPVSHTSATQINHHTSNSNSISSNSTSLNPKDVTDPSHIPSAIDLGFQFLFSPMDDILLNLLNKQLGIEVTEMTGSDLVYDETDTKVLDMVEVKKLNILWEKLLEYVSVCFFINVEESVRISWISQFQLFIDEMFPDHLSKSLSLNASHEFSFKKTMLILIDEVSSYAKLGNSQKKFLIWCFKVAELDDTLYPLNTVDTDFSKDILIPKVARRGLSQLPWALQSYPSPLNIHYEKFVSKVTIENDKCTLDCKDNSSYEVDQVVIACSPSHFSSNIEFSPGLPNFVTENIKSIDFKPGKKVILRYAAAFWRKNIRSFGIIPKSLSQEMNNDENDGKSCFVLRIWNMLPETGVPILVADINPQMTSSSSNETSHLIQELHSLIVDHFQNDSNSSADLLDAWVTNWSRNGVYDGLNSYPNFANDKQQYEKRFRQSQLSYNLGRLHIAGDYIFSCVGCRTLQRSFLSGLSVCTGIIDSLAPISLTIPIIGETSRKELDQFLRNSKVNNFDPNAEAQRHLSYQARYRLKKQERLDEHKEEQEQLVTELLGYLPEPPSKPNANPFLLYQKMQWHVCRALADEDKRRLTGDSTAKATINETRAKLGKTWRQLDDLGKKPWIDEIAAQREAYAGKILRYQRLTKEYEMRAEQIRNDYAAKCQDEPIPDDEARLFMQAQREEEQRKQTQDDNISKSREASDEEYHDDGSSDSGYNGTRY
For B5, the binding entry is recorded as “binds”.

B6: Byr3 (protein, UniProt P36627 1-179)
chain: MESESVPTVPQTTRPGPRCYNCGENGHQARECTKGSICYNCNQTGHKASECTEPQQEKTCYACGTAGHLVRDCPSSPNPRQGAECYKCGRVGHIARDCRTNGQQSGGRFGGHRSNMNCYACGSYGHQARDCTMGVKCYSCGKIGHRSFECQQASDGQLCYKCNQPGHIAVNCTSPVIEA
Take B6: the binding result is listed as “binds”.

B7: Uaf2 (protein, UniProt Q09176 1-216)
chain: MASHLASIYGTEQDKVNCSFYYKIGACRHGERCSRKHVKPNFSQTILCPNMYKNPIHEPNGKKFTQRELAEQFDAFYEDMFCEFSKYGEVEQLVVCDNVGDHLVGNVYVRFKYEESAQNAIDDLNSRWYSQRPVYAELSPVTDFREACCRQHETSECQRGGLCNFMHAKKPSPQLLRDLVLAQRKYLALNAAEEMKKEPNSDSTNRWVSVTAERKN
For the molecule B7, the binding entry is “binds”.

B8: Alp13 (protein, UniProt O13953 1-337)
chain: MAVSYKVNERVLCFHGPLLYEAKIVDTEMKGDVTTYLIHYKGWKNSWDEWVEQDRILQWTEENLKTQKELKNAAISTRQKPTSKKSASSTSKHDSTGVKTSGKRSRESSTVTVDGDSHELPSRIKTQKSESPIPQQVKRDGTTDAKNEETTKPENNEKDDFEEEPPLPKHKISVPDVLKLWLVDDWENITKNQQLIAIPRNPTVRAAIAAFRESKISHLNNEIDVDVFEQAMAGLVIYFNKCLGNMLLYRFERQQYLEIRQQYPDTEMCDLYGVEHLIRLFVSLPELIDRTNMDSQSIECLLNYIEEFLKYLVLHKDEYFIKEYQNAPPNYRSLVGV
Take B8: the binding result is reported as “binds”.

B9: Cip1 (protein, UniProt O42923 1-490)
chain: MPNEIFPWKIRVDESRGLAGNSGTKKSNHEALSRLQSPLNSPKLQPIGSPQASRKTSGSGSSAPLYPKWSGALSLASSRAASPAPSDSFPTFGYSQLGGLENSSKGSALFNSANSIGTPYLSSRNSNSANEASAMAFHNVSPPSGAESSSESKSFSASGKGNKADTSAEPSLDAFNSTQIKAGSTANSNSTPVEPGEDTIPTAIVVKNIPFSLEKDTLLDHFKQLGIPRPYAFNYHYDNGIFRGLAFANFYRPEEAQVVVQTLNGYEINGRRLRVEWKRQLPAAEREKVEKAKKRQAEERRRKQQYKMFEVSFTDQGLNLNDTGTLETYSRLLLFAHQCIPSREITFETTSKDGNLLNAIRIFCLYFDLDYYARPNGEVLKLVVTHPNKKNTSVSQSQPASPNLRFNMPAPLATRFLQEHSLNGTKSAPITPPPSFAVPLTNQLRSIDDKIYGNESPLQKASTLSSPFNSKNDNDASTSASKQSFGVSHF
Take B9: the binding entry was “binds”.
